Measured values: PMC9501356, “New Sulfamethoxazole Derivatives as Selective Carbonic Anhydrase IX and XII Inhibitors: Design, Synthesis, Cytotoxic Activity and Molecular Modeling” (Pharmaceuticals, 2022)
In brackets after ≈: the same amount, converted by molar mass. Like-named read-outs stand apart in the source and are kept apart here.

What was measured:
[1] = test system: MCF7 cells; test: MTT cytotoxicity assay on MCF7 (hypoxia and normoxia); format: cell-based; details: Homo sapiens
Procedure: was measured at 405nM. […]
Carbonic Anhydrase (CA) catalyzes the reversible reaction of CO2 + […]
H2O = HCO3- + H+. […]
= HCO3- + H+. […]
96 well plate. Substrate blank […]
S2.2.6. Cell culture Protocol
Culture Collection, the cultured cells were grown using DMEM […]
insulin (Sigma), and 1% penicillin-streptomycin antibiotics. Other chemicals […]
S2.2.7. MTT – Cytotoxicity assay protocol […]
with the original culture medium. Absorbance was measured spectrophotometrically at 570 nm wavelength using microplate reader (Bio-Rad, Molecular Devices, CA, USA).
S2.2.8. Annexin V-FITC Assay for apoptosis
Bank (http://www.rcsb.org). The co-crystallized ligands were extracted from […]
docked compounds were energy minimized and rotatable bonds were adjusted and then, they were saved as PDBQT files. The Swiss-PdbViewer […]
missing atoms and energy minimization. Then, the polar hydrogens and […]
using python embedded with AutoDock Vina. Thereafter, the affinity maps […]
process started using the specialized AutoDock4Zn forcefield. The exhaustiveness was adjusted to 32. The settings of the two grid boxes were […]
the co-crystallized ligand. The hCA-IX box was centered toward the […]

[2] = in vitro; details: human

`CN[C@@H]1C[C@H]2O[C@@](C)([C@@H]1OC)n1c3ccccc3c3c4c(c5c6ccccc6n2c5c31)C(=O)NC4` [Staurosporine, reference compound] showed an IC50 ([1]; MCF7, hypoxia, read-out: Cytotoxicity (IC50 µg/mL) MCF7 Hypoxia) of 1.63 ± 0.09 µg/mL (≈ 3.49 µM), an IC50 ([1]; MCF7, normoxia, read-out: Cytotoxicity (IC50 µg/mL) MCF7 Normoxia) of 4.78 ± 0.26 µg/mL (≈ 10.2 µM) and an IC50 [2] of 23.6 ± 1.27 µg/mL (≈ 50.7 µM).
